{"source": "PubChem BioAssay AID504444", "about": "(National Center for Advancing Translational Sciences (NCATS), 2011)", "note": "Values joined by “and” are separate entries in the source; they are usually repeats but may differ in a detail not shown here. Identical values can stand only once. About 7,500 (2.1%) of roughly 360,000 compounds were called active. Inconclusive means that the source gave no clear call. Such entries were picked first, then a sample of the others. The call rests on the fitted dose curve; in most records, active means well fitted inhibition curve with a large enough effect; inconclusive means small, poorly fitted or top-dose-only effect, or effect the other way; inactive means flat fitted curve, though single readings scatter. Potencies of inconclusive entries are doubtful fits and often do not repeat. On the % scale 0 is the no-effect control and ±100 the full control effect; potency means the concentration at half of the fitted maximal effect."}
{"assay": "Nrf2 qHTS screen for inhibitors; further: nearly all actives have a fitted effect of over 60% in size", "details": "A549 ARE-Fluc reporter, luciferase luminescence, 18-24 h; activity change, negative = inhibition: at 46 µM (top of the series)", "how_it_was_run": "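Concentration-response testing used A549 ARE_Fluc cells at 5000 cells/well. Following an 18-24 h compound incubation, viability was read by fluorescence (Ex 405/Em 525) and luciferase output by luminescence.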"}
{"smiles": "O=C(/C=C/c1ccco1)Nc1cccc2cccnc12", "Potency": "inconclusive: 14.6 µM [activator, partial curve]"}
{"smiles": "CC1CC(C)CN(S(=O)(=O)c2ccc(C(=O)N3CCN(c4ccccc4)CC3)cc2)C1", "note": "(stereo unspecified)", "Potency": "inconclusive: 1.64 µM [falling, partial curve, poor fit]"}
{"smiles": "CC(=O)N1CCN(c2ccc(NC(=O)c3cccc(Cl)c3)cc2)CC1", "Potency": "inconclusive: 5.8 µM [activator, partial curve]"}
{"smiles": "CCN(CC)S(=O)(=O)c1ccc2oc(C(=O)NCc3ccc(F)cc3)c(C)c2c1", "Potency": "active: 6.51 µM"}
{"smiles": "CCN1CCN(C(=O)C2CCCN(S(=O)(=O)c3cc(Cl)ccc3Cl)C2)CC1", "note": "(stereo unspecified)", "Potency": "inconclusive: 13 µM [falling, partial curve]"}
{"smiles": "CC(C)(C)c1ccc(-c2nnc(N)o2)cc1", "Potency": "inconclusive: 20.6 µM [activator, single point]"}
{"smiles": "COc1ccc(-n2ccnc(NCc3ccccc3Cl)c2=O)cc1OC", "Potency": "inconclusive: 29.1 µM [activator, single point]"}
{"smiles": "O=C(/C(=C\\c1ccccc1)c1nc2ccccc2[nH]1)c1ccc(Cl)cc1", "Potency": "inconclusive: 29.1 µM [falling, single point]"}
{"smiles": "CCOC(=O)c1c(C)[nH]c(C)c1C(=O)COC(=O)/C=C/c1ccccc1[N+](=O)[O-]", "Potency": "inconclusive: 29.1 µM [activator, single point]"}
{"smiles": "Cc1nnc(SCC(=O)N2CCCC2)n1-c1ccc(F)cc1", "activity change, negative = inhibition": "inactive: 2.56%"}
{"smiles": "Cc1cc(C)cc(C(=O)Nc2cccnc2)c1", "Potency": "inconclusive: 9.2 µM [falling, partial curve, poor fit]"}
{"smiles": "COCCCN1C(=O)c2ccc(C(=O)OCC(=O)N(CCC#N)c3cc(C)cc(C)c3)cc2C1=O", "activity change, negative = inhibition": "inactive: 16.7%"}
{"smiles": "C/C(=N/NC(=O)C(O)(c1ccccc1)c1ccccc1)c1ccc([N+](=O)[O-])o1", "Potency": "inconclusive: 6.51 µM [activator, partial curve, poor fit]"}
{"smiles": "CSc1ncc(-c2ccccc2)cn1", "Potency": "inconclusive: 29.1 µM [activator, single point]"}
{"smiles": "Cn1c(SCc2ccccc2C#N)nc2ccccc2c1=O", "Potency": "inconclusive: 18.4 µM [falling, single point]"}
{"smiles": "COc1ccc(-c2oc3ncn(CCN4CCOCC4)c(=N)c3c2-c2ccc(OC)cc2)cc1", "Potency": "active: 16.4 µM"}
{"smiles": "CC(=O)c1ccc(OCC(=O)OC(C)C(=O)NC2CCCCC2C)cc1", "note": "(stereo unspecified)", "Potency": "inconclusive: 1.64 µM [falling, partial curve, poor fit]"}
{"smiles": "CN(C)/C=C(\\C#N)C(=O)Nc1ccccc1", "Potency": "inconclusive: 8.2 µM [activator, partial curve, poor fit]"}
{"smiles": "Cc1cccc(NC(=O)Cn2cc(C(=O)c3ccco3)c3ccccc32)c1", "Potency": "inconclusive: 29.1 µM [falling, single point] and inconclusive: 23.1 µM [falling, single point]"}
{"smiles": "Cc1ccc(CNC(=O)c2ccc(Cn3c(=O)c4ccccc4n(CC(=O)Nc4ccc(C)cc4)c3=O)cc2)cc1", "activity change, negative = inhibition": "inactive: -7.7%"}
{"smiles": "Cc1nc2cc(NC(=O)c3ccc([N+](=O)[O-])s3)ccc2s1", "Potency": "active: 6.51 µM"}
{"smiles": "Nc1ccc(S(=O)(=O)N2CCCN(S(=O)(=O)c3ccc4c(c3)OCCO4)CC2)cc1", "activity change, negative = inhibition": "inactive: -7.85%"}
{"smiles": "COc1cc(C)ccc1OCc1cc(C(=O)N2CCCCCCC2)no1", "Potency": "inconclusive: 4.61 µM [activator, partial curve]"}
{"smiles": "CC(=O)c1cccc(NC(=O)COc2cc3oc(=O)c(CC(C)O)c(C)c3cc2Cl)c1", "note": "(stereo unspecified)", "Potency": "inconclusive: 29.1 µM [falling, single point]"}
{"smiles": "CC(=O)Nc1cccc(NC(=O)CSc2nc(=O)n(CCCN3CCOCC3)c3c2CCC3)c1", "Potency": "inconclusive: 32.6 µM [activator, partial curve, poor fit]"}
{"smiles": "CCn1c(CN2CCC(C)CC2)nc2cc(NC(=O)COc3ccc(Cl)c(C)c3)ccc21", "Potency": "active: 14.6 µM"}
{"smiles": "COc1ccc(-c2nc(CSCC(=O)NCCc3ccccc3)c(C)o2)cc1", "Potency": "inconclusive: 23.1 µM [falling, single point]"}
{"smiles": "CN(Cc1ccccc1)c1ccc(-c2nc(-c3ccccn3)no2)cc1[N+](=O)[O-]", "Potency": "inconclusive: 32.6 µM [activator, single point]"}
{"smiles": "O=C(c1cnn2c(C(F)(F)F)cc(-c3cccs3)nc12)N1CCN(C(c2ccccc2)c2ccccc2)CC1", "Potency": "inconclusive: 20.6 µM [falling, single point]"}
{"smiles": "CCOC(=O)c1c(C)[nH]c(C)c1S(=O)(=O)N1CCCC(C(=O)NCc2ccc(Cl)cc2)C1", "note": "(stereo unspecified)", "Potency": "inconclusive: 4.11 µM [falling, partial curve, poor fit]"}
{"smiles": "Cc1cccc2cc(C#N)c(NCc3ccccc3)nc12", "Potency": "inconclusive: 25.9 µM [activator, single point]"}
{"smiles": "COc1cccc(-c2nc(CS(=O)CC(=O)O)c(C)o2)c1", "note": "(stereo unspecified)", "activity change, negative = inhibition": "inactive: -14%"}
{"smiles": "c1ccc(CC2CCN(C(c3cccs3)c3nnnn3C3CCCC3)CC2)cc1", "note": "(stereo unspecified)", "Potency": "inconclusive: 29.1 µM [falling, single point]"}
{"smiles": "COc1ccc(CCNCC(O)Cn2c3ccccc3c3ccccc32)cc1OC", "note": "(stereo unspecified)", "Potency": "inconclusive: 29.1 µM [activator, single point]"}
{"smiles": "COc1cc(NC(=O)c2ccco2)c(OC)cc1NC(=O)CCC(=O)Nc1cc(C)cc(C)c1", "activity change, negative = inhibition": "inactive: -19.5%"}
{"smiles": "CCc1ccc(/C(C)=N/NC(=O)CNC(=O)/C=C/c2ccccc2OC)cc1", "Potency": "inconclusive: 29.1 µM [falling, single point]"}
{"smiles": "C=CCn1c(N)c(C(=O)OC(C)(C)C)c2nc3ccccc3nc21", "activity change, negative = inhibition": "inactive: -1.87%"}
{"smiles": "CCn1c2ccccc2c2cc(NC(=O)CSc3nnc(-c4ccc(OC)cc4)n3N)ccc21", "Potency": "inconclusive: 14.6 µM [falling, partial curve, poor fit]"}
{"smiles": "CCOC(=O)c1ccc(CNC(=O)CCC(=O)O)cc1", "Potency": "inconclusive: 10.3 µM [activator, partial curve, poor fit]"}
{"smiles": "COc1ccc(N2CCN(CC(=O)Nc3sccc3C#N)CC2)cc1", "activity change, negative = inhibition": "inactive: 5.05%"}
{"smiles": "O=C(Nc1ccc2oc(-c3ccncc3)nc2c1)c1ccccc1Cl", "Potency": "inconclusive: 2.31 µM [falling, partial curve, poor fit]"}
{"smiles": "CN(CC(=O)Nc1ccccc1C(F)(F)F)C(=O)CSCc1ccc(Cl)c(Cl)c1", "Potency": "inconclusive: 20.6 µM [falling, partial curve]"}
{"smiles": "CC1CCCN(C(=O)COC(=O)COc2ccc(Cl)cc2)C1", "note": "(stereo unspecified)", "Potency": "inconclusive: 32.6 µM [activator, partial curve, poor fit]"}
{"smiles": "COc1ccc(N=c2oc3cc(O)ccc3cc2C(=O)Nc2ccccn2)cc1OC", "activity change, negative = inhibition": "inactive: 28.4%"}
{"smiles": "N#C/C(=C/c1ccco1)c1nc2ccccc2s1", "Potency": "inconclusive: 9.2 µM [activator, partial curve]"}
{"smiles": "COC(=O)c1ccccc1NC(=O)CNC(=O)c1ccc(OC)cc1", "Potency": "inconclusive: 16.4 µM [falling, single point]"}
{"smiles": "CCCCCC(=O)NC(=S)Nc1ccc(NC(=O)c2ccco2)cc1", "Potency": "inconclusive: 29.1 µM [activator, single point]"}
{"smiles": "O=Cc1ccc(OCc2ccccn2)cc1", "Potency": "inconclusive: 4.61 µM [activator, partial curve]"}
{"smiles": "COc1ccc(-c2noc(-c3cccnc3N3CCN(c4ccc(OC)cc4)CC3)n2)cc1", "activity change, negative = inhibition": "inactive: 4.47%"}
{"smiles": "O=C(Nc1cccc(Cl)c1)c1ccc2c(c1)CCN2S(=O)(=O)c1ccccc1", "Potency": "inconclusive: 16.4 µM [falling, single point]"}
{"smiles": "COc1ccc(NC(=O)C2Cc3ccccc3C(=O)O2)cc1", "note": "(stereo unspecified)", "Potency": "inconclusive: 4.61 µM [activator, full curve, poor fit]"}
{"smiles": "CCCCOc1ccc(C(=O)N2CC(C)OC(C)C2)cc1", "note": "(stereo unspecified)", "Potency": "inconclusive: 25.9 µM [falling, single point]"}
{"smiles": "COc1cc2[nH]c(=O)n(CCCCCC(=O)NCCCN3CCC(C)CC3)c(=O)c2cc1OC", "activity change, negative = inhibition": "inactive: 8.97%"}
{"smiles": "CSc1nnc(-c2ccc([N+](=O)[O-])cc2)o1", "Potency": "inconclusive: 4.61 µM [falling, partial curve, poor fit]"}
{"smiles": "CCCCN(CC)C(=O)CSc1c2c(nc3ccc(Cl)cc13)CCCC2", "Potency": "inconclusive: 16.4 µM [falling, partial curve, poor fit]"}
{"smiles": "O=C(COc1ccccc1C(=O)Nc1ccccc1)c1ccc(Br)cc1", "Potency": "active: 20.6 µM"}
{"smiles": "CC(=O)Nc1cccc(OCCOc2cccc([N+](=O)[O-])c2)c1", "Potency": "inconclusive: 23.1 µM [falling, partial curve, poor fit]"}
{"smiles": "COc1cccc2sc3cc(NCc4ccc(C)o4)ccc3c(=O)c12", "activity change, negative = inhibition": "inactive: 1.65%"}
{"smiles": "COC(=O)c1ccc(NC(=O)c2ccc(N(C)S(C)(=O)=O)cc2)cc1", "Potency": "inconclusive: 20.6 µM [falling, single point]"}
{"smiles": "Cc1ccc(NC(=O)C2CCCCC2C(=O)O)cc1Cl", "note": "(stereo unspecified)", "Potency": "inconclusive: 29.1 µM [activator, single point]"}
{"smiles": "COc1cc(C)cc2oc(=O)c(CC(=O)NCCc3ccc(Cl)cc3)c(C)c12", "activity change, negative = inhibition": "inactive: -29.6%"}
{"smiles": "C=CCc1c(C)nc(-c2ccccc2)nc1N/N=C/c1ccccc1", "Potency": "inconclusive: 0.116 µM [falling, full curve, poor fit]"}
{"smiles": "Cc1ccc(NC(=O)c2ncn[nH]2)cc1", "Potency": "inconclusive: 7.31 µM [activator, partial curve, poor fit]"}
{"smiles": "CC1CCCN(C(=O)CSc2cnc3ccccc3n2)C1", "note": "(stereo unspecified)", "Potency": "inconclusive: 0.366 µM [activator, full curve, poor fit]"}
{"smiles": "O=C(COc1cccc2c1CCNC2=O)Nc1ccc(F)cc1", "Potency": "inconclusive: 18.4 µM [falling, partial curve]"}
{"smiles": "Cn1ccsc1=NC(=O)c1ccc(CS(C)(=O)=O)cc1", "Potency": "inconclusive: 8.2 µM [activator, partial curve, poor fit]"}
